Results on 29 molecules are retold here after PubChem BioAssay AID602441 (National Center for Advancing Translational Sciences (NCATS), 2012).

In all, about 1,300 compounds went through this assay and fewer than 10 were called active. About 9% were inconclusive and are not listed. The call rests on the fitted dose curve; in most records, active means well fitted curve in the direction sought with a large enough effect; inconclusive means small, poorly fitted or top-dose-only effect, or another doubt; inactive means no such curve, though single readings can be large or run the other way. The list shows a part of the results.

This test can be described thus: qHTS for antagonists of the Thyroid Stimulation Hormone Receptor: Hit Validation in Parental Cell Line. Further: 0% is about no effect. The following applies: parental HEK293 cells lacking TSHR, counter-screen; series mostly up to 56.9 µM; activity change, negative = inhibition: at the top concentration. A digest of the protocol: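 Counterscreen in untransfected parental HEK-EM 293 cells. Lysate cAMP displaces cAMP-d2 from cryptate-tagged anti-cAMP antibody, and homogeneous TR-FRET is read at 665 nm with 337 nm excitation after stimulation.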
For `Cc1ccc(C(=O)Nc2ccc(Br)c(C(F)(F)F)c2)cc1`, the “activity change, negative = inhibition” value is inactive: -6.5%. Regarding `Cc1ccc(S(=O)(=O)N2CCCCC2)cc1NC(=O)Cn1ncc(Cl)c(Cl)c1=O`, the “activity change, negative = inhibition” value is inactive: -4.17%. Then `COc1ccc(CNC(=O)Cn2nc(Cc3cccnc3)c3ccccc3c2=O)cc1`, with inactive: 3.96%; and `O=C(N/N=C/c1cccc(Oc2ccc([N+](=O)[O-])cc2[N+](=O)[O-])c1)c1cncc(Br)c1`, with inactive: 0.39%.

Take `CCc1nnc(NC(=O)c2ccc(Cl)c(S(=O)(=O)N3CCc4ccccc43)c2)s1`: the “activity change, negative = inhibition” value was inactive: -0.247%.

As to `COc1ccc(/C=N/n2c(C)nnc2C)c(OC)c1OC`, the “activity change, negative = inhibition” value is inactive: 2.14%. Then `COc1ccc(-c2cc3c(=O)n(CC(=O)NCc4cccnc4)nc(C)n3n2)cc1`, with inactive: 0.739%; and `Cc1nc(N2CCN(S(=O)(=O)c3ccccc3C#N)CC2)c2c(-c3cccs3)csc2n1`, with inactive: -3.34%. Then `Cc1ccc(S(=O)(=O)N2CCCC(C(=O)NC3CCCC3)C2)cc1Cl` (centres undefined), with inactive: 5.01%.

With `CNC(=S)n1cnc(N)n1`, the “activity change, negative = inhibition” value was inactive: 5.9%.

As to `N#Cc1c(Cl)nsc1NC(=O)c1ccccc1`, the “activity change, negative = inhibition” value is inactive: -1.11%. Then `COc1ccc(OCC(=O)NC(=S)Nc2ccc(N3CCOCC3)c(Cl)c2)cc1`, with inactive: -3.54%; and `CC(=O)N1c2ccc(S(=O)(=O)N3CCC(C(=O)NC4CCCCC4C)CC3)cc2CC1C` (centres undefined), with inactive: 1.67%.

Consider `N#CC(C#N)=NNc1ccc([N+](=O)[O-])cc1`, for which the “activity change, negative = inhibition” value is inactive: -10.8%. Consider `O=C(CSc1ccc(F)cc1)N1CCC(c2nc3ccccc3s2)CC1`, for which the “activity change, negative = inhibition” value was inactive: 4.62%. Then `CSc1cnn(Cc2ccccc2)c(=O)c1SCc1ccccc1`, with inactive: -0.181%; and `CSc1nnc(C(C)(C)C)c(=O)n1/N=C/c1c(O)ccc2ccccc12`, with inactive: -0.0672%; and `CCn1c(=S)sc2c(=O)n(CC(=O)Nc3ccccc3OC)c(C)nc21`, with inactive: -0.358%. Then `CS(=O)(=O)N(CCc1ccccc1)CC(=O)Nc1ccc(OCc2ccccc2)cc1`, with inactive: -2.69%; and `COc1ccc(CNC(=O)C(C)OC(=O)c2cccs2)cc1` (centres undefined), with inactive: 4.94%; and `COc1cccc(O)c1CN1CCC(C(=O)Nc2ccc(Oc3cccnc3)cc2)CC1`, with inactive: -18%. Then `O=S(=O)(c1cccc(Br)c1)N1CCN(CCc2ccccc2)CC1`, with inactive: 6.2%; and `COc1ccc(CC(=O)Oc2cc(C)ccc2C)cc1`, with inactive: 2.72%. Regarding `Cc1cc2nc(SCCOC(=O)Nc3ccc(Cl)cc3)nc(C)c2cc1C`, the “activity change, negative = inhibition” value is inactive: 4.76%.

With `COc1ccc(NC(=S)NC(=O)/C=C/c2ccco2)cc1`, the “activity change, negative = inhibition” value was inactive: -5.05%. Regarding `S=c1sc2c(Cl)ncnc2n1-c1ccccc1`, the “activity change, negative = inhibition” value is inactive: -6.96%. Then `COc1ccc(NC(=O)CCNS(=O)(=O)c2ccc3c(c2)CC(C)N3C(C)=O)cc1` (centres undefined), with inactive: 2.65%; and `COc1ccc(Cc2nc(C(=O)Nc3ccc(Cl)cc3)cs2)cc1`, with inactive: 0.0134%. Consider `O=[N+]([O-])c1cccc(S(=O)(=O)Nc2nc3ccccc3nc2Nc2cccc(S(=O)(=O)N3CCCCC3)c2)c1`, for which the “activity change, negative = inhibition” value is inactive: 1.72%.
